# Screen size: about 360,000 compounds; about 7,500 (2.1%) were called active. Inconclusive results, whose numbers are uncertain, are shown with a selection of clear calls. The call rests on the fitted dose curve; in most records, active means well fitted inhibition curve with a large enough effect; inconclusive means small, poorly fitted or top-dose-only effect, or effect the other way; inactive means flat fitted curve, though single readings scatter. Where the call is inconclusive, the potency comes from a doubtful curve fit.
# Assay: Nrf2 qHTS screen for inhibitors; further: nearly all actives have a fitted effect of over 60% in size
# Details: A549 ARE-Fluc reporter, luciferase luminescence, 18-24 h; series mostly up to 46 µM
# Procedure, shortened: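 Reporter: ARE-Fluc in A549. Exposure: 18-24 h, 37 °C, 5% CO2, 5% FBS OPTI-MEM. Readouts: fluorescent cytotoxicity (CellTiter-Fluor), then luminescent Nrf2 signal after BugLite.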
# Potency means the concentration at half of the fitted maximal effect.
row,Compound,Potency
1,CCCOc1ccc(NC(=O)CC2C(=O)N(C)C(=S)N2Cc2cccs2)cc1 (stereo not drawn),"inconclusive: 29.1 µM [falling, single point]"
2,CCn1nnnc1NC(=O)c1cccc(OC)c1,"inconclusive: 7.31 µM [activator, partial curve]"
3,Cc1onc(-c2ccccc2)c1C(=O)Nc1nc(-c2ccccc2)cs1,"inconclusive: 11.6 µM [activator, partial curve, poor fit]"
4,CCCC(=O)Nc1nnc(S(=O)(=O)N(C)Cc2ccco2)s1,inactive
5,Cc1cccc(-n2cnc(C(=O)NC3CCCCCC3)c2)n1,"inconclusive: 4.61 µM [activator, partial curve]"
6,CCOC(=O)c1c(C)[nH]c(C)c1S(=O)(=O)N1CCC(C(=O)NCc2ccc(C)cc2)CC1,"inconclusive: 23.1 µM [activator, single point]"
7,CCCC(O)c1nc2ccccc2n1CCCCOc1ccc(OC)cc1 (stereo not drawn),"inconclusive: 20.6 µM [activator, single point]"
8,Cc1cc(=O)[nH]c(SCC(=O)N2CCCC2)n1,inactive
9,O=C(NCc1ccc(F)cc1)n1c(-c2ccccc2)c(P(=S)(c2ccccc2)c2ccccc2)c2ccccc21,"inconclusive: 18.4 µM [falling, single point]"
10,Cc1ccc(-c2csc(-c3c[nH]c4ccccc34)n2)c(C)c1,"inconclusive: 3.66 µM [activator, partial curve, poor fit]"
11,Cc1cc(C)cc(NC(=O)CSc2nncn3c2cc2occc23)c1,inactive
12,O=S1(=O)Nc2c(ccc3cccnc23)-c2ccccc21,"inconclusive: 6.51 µM [falling, single point]"
13,COc1cc2c(cc1NC(=O)CN(C)Cc1nc3ccccc3c(=O)[nH]1)oc1ccccc12,"inconclusive: 18.4 µM [falling, single point]"
14,CCN1C(C(=O)c2ccccc2)=C(OC(=O)C(C)C)c2ccccc2S1(=O)=O,"inconclusive: 18.4 µM [falling, single point]"
15,O=C(Nc1ccc(N2CCN(C(=O)c3cccs3)CC2)cc1)c1ccccc1Cl,"inconclusive: 18.4 µM [falling, partial curve]"
16,CN(C)C(=O)CSc1nc(-c2ccccc2)c(-c2ccccc2)o1,"inconclusive: 29.1 µM [falling, single point]"
17,O=[N+]([O-])c1cccc(COc2ncnc3cc([N+](=O)[O-])ccc23)c1,inactive
18,Cc1ccccc1NC(=O)N1CCCC(c2nc(-c3ccc(C(C)C)cc3)no2)C1 (stereo not drawn),active: 5.8 µM
19,Cc1cccc(-[n+]2c(-c3cccc(Br)c3)[nH]c3nc4ccccc4nc32)c1,"inconclusive: 9.2 µM [falling, partial curve]"
20,O=C(CN1C(=O)C(=O)N(CCC2=CCCCC2)C1=O)c1c[nH]c2ccccc12,"inconclusive: 29.1 µM [falling, single point]"
21,C=CC(=O)Nc1sc2c(c1C(N)=O)CCCC2,inactive
22,CCc1nc2ccccc2n1CCCCOc1ccccc1C,"inconclusive: 29.1 µM [falling, single point]"
23,CN(C)CCCN(C(=O)C1COc2ccccc2O1)c1nc2cc3c(cc2s1)OCO3 (stereo not drawn),"inconclusive: 5.8 µM [activator, full curve, poor fit]"

row,Compound,Potency
1,O=C(CSc1nccn1Cc1ccco1)Nc1ccccc1F,"inconclusive: 13 µM [activator, partial curve]"
2,COC(=O)CCC/C=C1/SCC(NC(=O)c2ccccc2)C1NC(C)=O (stereo not drawn),inactive
3,CC1(NC(=O)CC(c2ccccc2)(c2ccccc2)c2ccccc2)CCN(CCCc2ccccc2)C1=O (stereo not drawn),"inconclusive: 29.1 µM [falling, single point]"
4,Cc1cc(C)c(NC(=O)C2CSCCS2)c(C)c1 (stereo not drawn),"inconclusive: 1.3 µM [activator, single point]"
5,O=C1C(Nc2ccccc2)=C(N2CCCCC2)C(=O)c2ccccc21,inactive
6,COc1cc(NCCCC(C)N)c2ncccc2c1 (stereo not drawn),active: 5.8 µM
7,CN(C)CC(O)COC(c1ccc(Cl)cc1)c1ccc(Cl)cc1 (stereo not drawn),"inconclusive: 7.31 µM [activator, partial curve, poor fit]"
8,COc1ccc(CNC(=O)c2nnn(CC(=O)Nc3cc(C)cc(C)c3)c2N)cc1,"inconclusive: 36.6 µM [falling, single point]"
9,COc1ccccc1C(=O)NC1(C(F)(F)F)C(=O)Nc2c1c(=O)[nH]c(=O)n2CCc1ccccc1 (stereo not drawn),inactive
10,CC(=O)c1cccc(Nc2nc(-c3cccc([N+](=O)[O-])c3)cs2)c1,"inconclusive: 6.51 µM [activator, single point]"
11,Cc1ccc(S(=O)(=O)N2CCCCC2)cc1NC(=O)Cn1c(=O)cnc2ccccc21,"inconclusive: 29.1 µM [falling, single point]"
12,Cc1cccc(/C=C\c2nc3ccccc3c(=O)[nH]2)c1,inactive
13,Cc1cccc(N2CCN(C(=O)CCCn3c(=O)c4cccn4c4cccnc43)CC2)c1C,"inconclusive: 32.6 µM [falling, single point]"
14,O=C(c1cccs1)N1CCN(C(=O)N2CCOCC2)CC1,"inconclusive: 2.91 µM [activator, full curve, poor fit]"
15,COc1ccccc1OCCn1cc(/C=C(\C#N)C(=O)NCc2ccco2)c2ccccc21,inactive
16,O=C(Cc1ccccc1)Nc1ccc(CN2CCOCC2)cc1,inactive
17,O=C(O)C(Cc1ccccc1)Nc1ccc([N+](=O)[O-])cc1[N+](=O)[O-] (stereo not drawn),inactive
18,O=c1[nH]c(Nc2nc3ccccc3o2)nc2c1CCCC2,"inconclusive: 32.6 µM [falling, single point]"
19,COc1ccc(C(=O)C2CCCN(C(=O)c3cccc(N(C)C)c3)C2)cc1OC (stereo not drawn),"inconclusive: 0.326 µM [falling, full curve]"
20,Cc1ccn2c(=O)nc(SCC(=O)N3N=C(c4cccs4)CC3c3ccc(F)cc3)nc2c1 (stereo not drawn),"inconclusive: 20.6 µM [falling, single point]"
21,CC1(C)Oc2ccc3ccc(=O)oc3c2/C(=C/NNC(N)=O)C1=O,"inconclusive: 6.51 µM [falling, partial curve, poor fit]"
22,COc1ccc(S(=O)(=O)NCc2cc(-c3ccccc3Cl)no2)cc1,inactive
23,COCCCN=C1NN=C(c2cc(C)n(-c3ccccc3F)c2C)CS1,"inconclusive: 1.46 µM [falling, partial curve, poor fit]"

row,Compound,Potency
1,COc1ccc(CC(=O)Nc2ccc(C)c(S(=O)(=O)N3CCCCCC3)c2)cc1,"inconclusive: 25.9 µM [falling, single point]"
2,O=[N+]([O-])c1cncc([N+](=O)[O-])c1Nc1cccc(O)c1,inactive
3,NC(=O)CC(NC(=O)c1ccc(Br)cc1)c1ccc(NC2CCCCCCC2)c([N+](=O)[O-])c1 (stereo not drawn),"inconclusive: 23.1 µM [falling, single point]"
4,COC(=O)c1c(-c2ccccc2)csc1NC1=NS(=O)(=O)c2ccccc21,"inconclusive: 0.651 µM [activator, full curve]"
5,CSc1ccc(/C=C/C(=O)OCC(=O)NC(C)C)cc1,"inconclusive: 29.1 µM [activator, single point]"
6,COc1ccc(S(=O)(=O)N/N=C/c2ccc(OCCN3CCOCC3)c(OC)c2)cc1,"inconclusive: 8.2 µM [activator, partial curve, poor fit]"
7,CCCCC[n+]1ccn(C2=C([O-])c3ccccc3C(=O)/C2=N\S(=O)(=O)c2ccc(Br)cc2)c1,"inconclusive: 14.6 µM [falling, partial curve, poor fit]"
8,CCc1nc(SCC(=O)NC2CCCC2)c2oc3ccccc3c2n1,inactive
9,O=C(CCN1CCN(c2ccccc2)CC1)N/N=C/c1ccccc1O,"inconclusive: 23.1 µM [falling, single point]"
10,COc1cc(Nc2c3ccccc3nc3ccccc23)cc(OC)c1OC,"inconclusive: 20.6 µM [falling, single point]"
11,COc1ccccc1N1CCN(/N=C/c2c(C)nn(-c3ccccc3)c2C)CC1,"inconclusive: 14.6 µM [falling, partial curve, poor fit]"
12,O=C(/C=C\c1ccco1)Nc1nc(-c2ccc3ccccc3c2)cs1,active: 14.6 µM
13,CCOc1ccc(CNC(=O)C2CCCN(S(=O)(=O)c3ccc4c(c3)CCCC(=O)N4)C2)cc1 (stereo not drawn),"inconclusive: 20.6 µM [falling, partial curve, poor fit]"
14,Cc1cccc(-c2nc(SCC(=O)Nc3cccc(C(F)(F)F)c3)n3[nH]c(=O)cc3n2)c1,inactive
15,COc1ccc(NC(=O)CCN2C(=O)c3ccccc3C2=O)c(OC)c1,inactive
16,Cc1nn(Cc2ccc(Cl)cc2)c(C)c1NC(=O)c1noc2c1CCc1ccccc1-2,active: 16.4 µM
17,O=C(COc1ccc(Br)cc1Cl)NC(=O)Nc1ccc2c(c1)OCCO2,"inconclusive: 29.1 µM [activator, single point]"
18,CCCCNc1ncnc2oc(-c3ccco3)c(-c3ccco3)c12,active: 20.6 µM
19,C[C@@H]1C=CC(=O)O[C@@H]1c1ccc(Cl)cc1,active: 9.2 µM
20,CC(NCC(=O)Nc1cc(S(=O)(=O)N2CCOCC2)ccc1Cl)c1ccc(Cl)cc1Cl (stereo not drawn),"inconclusive: 29.1 µM [falling, single point]"
21,CN(CCCN(Cc1ccc(Cl)cc1)c1ccc(Br)cn1)C(=S)NCCCc1cnc[nH]1,"inconclusive: 3.66 µM [falling, partial curve, poor fit]"
22,Clc1cccc(-c2csc(-c3nc(-c4ccc(Br)s4)cs3)n2)c1,inactive

# 3 entries from above in a different format.
row	Compound	Potency
4	CCCC(=O)Nc1nnc(S(=O)(=O)N(C)Cc2ccco2)s1	inactive
5	Cc1cccc(-n2cnc(C(=O)NC3CCCCCC3)c2)n1	inconclusive: 4.61 µM [activator, partial curve]
6	CCOC(=O)c1c(C)[nH]c(C)c1S(=O)(=O)N1CCC(C(=O)NCc2ccc(C)cc2)CC1	inconclusive: 23.1 µM [activator, single point]

# — PubChem BioAssay AID504444 (National Center for Advancing Translational Sciences (NCATS), 2011)
